Results: US20240390301A1, “COMBINATIONS OF PERIPHERAL 5-HT2A RECEPTOR ANTAGONISTS AND CENTRAL 5-HT2A RECEPTOR AGONISTS” (priority 2021, published 2024)
For part of these data: At least one read-out could not be matched to a standard name with certainty. For at least one compound, name, drawing or mass did not settle the structure.

Legend:
[1] = Method 2: RED, 5 M, 4 hours, 37° C.; ** stability <50%, # recovery <50%: may be unreliable
Description: Various putative peripheral 5-HT2A receptor antagonists were tested for binding to rat brain homogenate via equilibrium dialysis, with the results summarized in Table 7.
Method 1. Rat brain homogenate was thawed in a water bath at room temperature and then incubated at 37° C. for 10 min before use. Aliquots of 50 μL of loading matrix containing test compound (2 μM final incubation concentration) or control compound in triplicate were transferred to a Sample Collection Plate. The samples were matched with opposite blank buffer to obtain a final volume of 100 μL with a volume ratio of matrix: Dialysis Buffer of 1:1 (v:v) in each well. The stop solution (200 ng/mL tolbutamide and 200 ng/ml labetalol in ACN) was immediately added to these T0 samples of test compound and control compound. The plate was sealed and shaken at 800 rpm for 10 min. T0 samples were stored at 2-8° C. pending further processing along with other post-dialysis samples. An aliquot of 100 μL of the loading matrix containing test compound or control compound was transferred to the donor side of each dialysis well in triplicate and 100 μL of the Dialysis Buffer was loaded to the receiver side of the well. Then the plate was rotated at approximately 100 rpm in a humidified incubator with 5% CO2 at 37±1° C. for 4 hours. […]

[2] = brain, 1 mg/kg SC
Description: The pharmacokinetics of peripheral 5-HT2A antagonists were studied in the plasma (Tables 11 and 12) and brains (Table 13 and 14) of rats after subcutaneous (SC) dosing. The results were used to interpret the in vivo pharmacological results.
Animals. Male Sprague Dawley rats, aged 8-12 weeks. were used in these studies. Four rats were housed in each cage. […] Temperature and humidity were recorded by an auto-controlled data logger system. All animals were provided laboratory rodent diet and were fasted for 4 h pre-dose and 2 h post-dose. Reverse osmosis water treated with ultraviolet light was provided ad libitum. Animals were randomly assigned to treatment groups.
Drugs and Drug Administration. Test compounds were prepared as described above or commercially obtained. They were administered subcutaneously (SC) at a dose of 1 or 10 mg/kg (as indicated, calculated based on the free base) and at a volume of 5 mL/kg body weight.
Sample Collection and Bioanalysis. […] SC. […] For both studies, immediately after blood collection, plasma was harvested by centrifugation at 4,000 rpm for 10 min at 4° C. and samples were stored at −70±10° C. until bioanalysis. […] Following centrifugation, 100 μL of each clear supernatant was transferred to a 96-well plate and analyzed with a fit-for-purpose LC-MS/MS method, with authentic samples of each analyte used for calibration and identification.

| SMILES | Mean % bound (rat brain homogenate) [1] | Cmax [2] | Cmax (ng/g) [2] |
| --- | --- | --- | --- |
| COc1cccc(OC(C)CNC(=N)Cc2cccc(C)c2)c1.O=C(O)C(F)(F)F (stereo not drawn) [xylamidine, N-(2-(3-methoxyphenoxy)propyl)-2-(m-tolyl) acetimidamide trifluoroacetate] | 93.3% | 42.7 ng/g | – |
| CC(C)COc1ccc(CNC(=O)N(Cc2ccc(F)cc2)C2CCN(C(=O)CC[C@H](N)C(=O)O)CC2)cc1 [Compound 14a, (S)-2-amino-5-(4-(1-(4-fluorobenzyl)-3-(4-isobutoxybenzyl)ureido)piperidin-1-yl)-5-oxopentanoic acid] | – | – | No quantifiable concentrations observed |
